PubChem BioAssay AID1508597 – Cure First, 2020

Aim: 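Knock-downs altering ovarian cancer cell survival with or without PARP inhibitor rucaparib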 (primary screen)
System: human ovarian carcinoma lines grown from tumours: OCI-P5x (papillary serous) and OCI-C5x (clear cell)
Knock-down reagent: siRNA pool against human genes, 1.25 pmol siRNA per well
Time to read-out: 72 h or 96 h, depending on the cell culture
Conditions: rucaparib 20 µM (about IC30) or vehicle, present until read-out
Rucaparib or vehicle: Vehicle
Cell line: OCI-P5x (serous)
Read-out: 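Luminescent ATP-based viability assay read 72 or 96 h after transfection, depending on culture, given as normalised percent viability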
Direction: viability, normalised: higher = more viable cells remaining
Rule for the call: 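a well counts as a hit if its normalised viability is under 80 percent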
Meaning of the calls: active = viability under 80%; inactive = viability 80% or more
Shown is a random part of the about 2,100 reagents, under one of the conditions tested. 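Calls flag viability under 80% in either arm, not effects specific to rucaparib; the reference for percent is not stated.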 Unmarked entries are inactive. Some reagents were tested in more than one well and are listed for each. Not stated in the record: the 100% reference.

| Gene | technical replicate | viability, normalised (%) |
| --- | --- | --- |
| ARFRP1 | 1 | 80.4 |
| ARFRP1 | 2 | 72 (active) |
| ARFRP1 | 3 | 60.5 (active) |
| TREX2 | 1 | 75.7 (active) |
| TREX2 | 2 | 66.9 (active) |
| TREX2 | 3 | 55.5 (active) |
| EPHA1 | 1 | 106 |
| EPHA1 | 2 | 71.2 (active) |
| EPHA1 | 3 | 108 |
| EPC1 | 1 | 51.8 (active) |
| EPC1 | 2 | 42.1 (active) |
| EPC1 | 3 | 56.2 (active) |
| FANCA | 1 | 85.5 |
| FANCA | 2 | 91.8 |
| FANCA | 3 | 97.4 |
| PRKAG1 | 1 | 112 |
| PRKAG1 | 2 | 106 |
| PRKAG1 | 3 | 86.2 |
| JMJD4 | 1 | 59.9 (active) |
| JMJD4 | 2 | 80 (active) |
| JMJD4 | 3 | 131 |
| DDX31 | 1 | 71.9 (active) |
| DDX31 | 2 | 75.8 (active) |
| DDX31 | 3 | 68.8 (active) |
| CLDN3 | 1 | 66.8 (active) |
| CLDN3 | 2 | 73 (active) |
| CLDN3 | 3 | 69.7 (active) |
| STK33 | 1 | 75.3 (active) |
| STK33 | 2 | 71.9 (active) |
| STK33 | 3 | 76.9 (active) |
| GPX4 | 1 | 53.7 (active) |
| GPX4 | 2 | 63.7 (active) |
| GPX4 | 3 | 62.3 (active) |
| PDE10A | 1 | 44.8 (active) |
| PDE10A | 2 | 66 (active) |
| PDE10A | 3 | 53.2 (active) |
| WDR77 | 1 | 46.4 (active) |
| WDR77 | 2 | 46.2 (active) |
| WDR77 | 3 | 39.3 (active) |

In a second layout: results already given.
DDX31, technical replicate 3: viability, normalised (%) = 68.8 (active)
CLDN3, technical replicate 1: viability, normalised (%) = 66.8 (active)
CLDN3, technical replicate 2: viability, normalised (%) = 73 (active)
CLDN3, technical replicate 3: viability, normalised (%) = 69.7 (active)
STK33, technical replicate 1: viability, normalised (%) = 75.3 (active)

The list goes on:
| Gene | technical replicate | viability, normalised (%) |
| --- | --- | --- |
| PDK2 | 1 | 90.5 |
| PDK2 | 2 | 81.8 |
| PDK2 | 3 | 99.1 |
| WNT5A | 1 | 42.6 (active) |
| WNT5A | 2 | 57.7 (active) |
| WNT5A | 3 | 59.8 (active) |
| ZCCHC13 | 1 | 93.1 |
| ZCCHC13 | 2 | 77.1 (active) |
| ZCCHC13 | 3 | 83 |
| PLCE1 | 1 | 54.9 (active) |
| PLCE1 | 2 | 60.3 (active) |
| PLCE1 | 3 | 62.8 (active) |
| PBK | 1 | 67.5 (active) |
| PBK | 1 | 88 |
| PBK | 2 | 82.1 |
| PBK | 2 | 69.9 (active) |
| PBK | 3 | 82.1 |
| PBK | 3 | 84.7 |
| ELAC2 | 1 | 52.9 (active) |
| ELAC2 | 2 | 64.1 (active) |
| ELAC2 | 3 | 35.7 (active) |
| BAZ1B | 1 | 59.4 (active) |
| BAZ1B | 2 | 73.9 (active) |
| BAZ1B | 3 | 72.2 (active) |
| APEX2 | 1 | 66.4 (active) |
| APEX2 | 2 | 73.3 (active) |
| APEX2 | 3 | 74 (active) |
| EHMT2 | 1 | 46 (active) |
| EHMT2 | 2 | 40.8 (active) |
| EHMT2 | 3 | 51.3 (active) |
| SIRT1 | 1 | 42.5 (active) |
| SIRT1 | 1 | 74.3 (active) |
| SIRT1 | 2 | 57.8 (active) |
| SIRT1 | 2 | 107 |
| SIRT1 | 3 | 80.8 |
| SIRT1 | 3 | 107 |
